Experiment [1] concerns the target CAR comprising the anti-CD19 scFv FMC63 (SEQ ID NO: 1). Briefly: immunohistochemistry on cells presenting the CAR.
Experiment [2] shares this target. Put plainly: immunohistochemistry on cells presenting the CAR, PBMC control.
For experiment [3] the target is unchanged. Briefly: immunohistochemistry on fixed cell pellets of CAR T cells presenting the FMC63 scFv, PBMC as control.
Experiment [4] shares this target. Briefly: flow cytometry, CAR-transduced cells against untransduced cells.

Results on two molecules are retold here after patent publication US20200354475A1.

Results are given in words; binding and its absence hold for the method and conditions named. Some results given as binding are weak or reduced against the parent protein; the word gives no strength.

B1: Clone 13 (antibody, V domains shown)
VH: QEQLEESGGDLVKPGGTLTVTCKASGFSFSNNGICWVRQAPGKGLEWIGCLYVGSSDTTYYASWAKGRFTISKSSSTTVTLQMTSLTVADTATYFCTINLGLWGPGTLVTVSS
VL: AIVVTQTPSSKSVPVGGTVTINCQASESVYNSDWLAWYQQKPGQPPKQLIYAASTLASGVPSRFKGSGSGTQFTLTISDVVCDDAATYYCAGYKSSSTDGIAFGGGTEVVVKG
Take B1: the binding entry in experiment [1], in experiment [2] and in experiment [3] was “binds” each time.

B2: Clone 17 (antibody, V domains shown)
VH: QSLEESGGGLVKPGASLTLTCTASGFSFSDSWYLCWVRQAPGKGLEWIACIYTGDGDTYYATWAKGRFTISKTSSTTVTLQMTSLTAADTATYFCARGAQFYLWGQGTLVTVSS
VL: AQVLTQTPSSVSAAVGGTVTINCQSSQSVYANTYLSWYQQKPGQPPKQLIYSASSLASGVPPRFKGSGSGTQFALTISDVQCDDAATYYCLGRYSCGLADCAAFGGGTEVVVKG
Consider B2, for which the binding entry in experiment [4] is reported as “binds”.
